{"source": "patent US20100009970A1", "about": "“COMPOSITIONS AND METHODS FOR TREATMENT OF VIRAL DISEASES” (Combinatorx (Singapore) Pte. Ltd., priority 2008, published 2010)", "tested_on": "Huh7 cells expressing a subgenomic RNA replicon of Con1 (genotype 1b) sequence origin", "assay": "microbe, parasite or virus in culture", "conditions": "Hepatitis C virus, Huh-7", "data": [{"molecule": "O=C(CCCN1CCC2(CC1)C(=O)NCN2c1ccccc1)c1ccc(F)cc1", "note": "[Spiperone, reference compound]", "values": [{"measurement": "IC50", "result": 7.21, "unit": "µM"}]}]}
